Values from PubChem BioAssay AID652243 (Drosophila RNAi Screening Center, 2013).
Purpose: 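Fly genes required for human androgen receptor driven transcription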 (primary screen). Cells: Drosophila S2R+ cells. Knock-down reagent: long dsRNA against Drosophila genes. Duration: 72 h (48 h, then 24 h hormone). Conditions: synthetic androgen R1881 at 10 nM for 24 h. Measured: 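Firefly light from an androgen-responsive reporter and Renilla control light per well, raw and unnormalised, for each of two replicates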. Reading the numbers: firefly reporter light: higher = more light from androgen-responsive reporter; Renilla control light: higher = more constitutive control signal (cell number, transfection). Rule for the call: 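Hit when the log firefly-to-Renilla ratio dropped or increased by a fixed fold versus the mean of GFP or LacZ controls across duplicate plates; lowering cut given as 1.5 and as 3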. Calls: active = hit: reporter lowered or raised; inactive = no hit.
In all, the deposit lists about 24,000 reagents; below is a random part of those with a known target gene and a result. In the full data, 246 (1%) are marked active. 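Plates not normalised; calls are printed but the firefly/Renilla ratio behind them is not deposited; fold cut for lowering reported inconsistently.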 The raw values are shown without normalisation. Reagents against one gene are numbered here. Not stated in the record: the amount of reagent.

| gene | reagent | firefly reporter light, replicate 1 | firefly reporter light, replicate 2 | Renilla control light, replicate 1 | Renilla control light, replicate 2 | outcome |
| --- | --- | --- | --- | --- | --- | --- |
| pyd3 | 1 | 3.20e5 | 2.89e5 | 3.27e6 | 3.14e6 | inactive |
| pyd3 | 2 | 7.90e5 | 7.09e5 | 2.21e6 | 1.75e6 | inactive |
| CG42326 | 1 | 3.64e5 | 4.21e5 | 2.73e6 | 2.48e6 | inactive |
| CG42326 | 2 | 2.28e5 | 2.08e5 | 1.79e6 | 1.76e6 | inactive |
| CG42326 | 3 | 7.73e5 | 8.51e5 | 7.84e5 | 7.07e5 | inactive |
| Bx | 1 | 5.72e5 | 4.74e5 | 3.99e6 | 3.56e6 | inactive |
| Bx | 2 | 3.64e5 | 5.84e5 | 8.65e5 | 1.17e6 | inactive |
| Bx | 3 | 3.74e5 | 5.55e5 | 8.70e5 | 1.44e6 | inactive |
| CG42534 | 1 | 1.69e5 | 1.06e5 | 2.34e6 | 2.36e6 | inactive |
| CG42534 | 2 | 8.49e5 | 1.01e6 | 4.78e5 | 4.39e5 | inactive |
| CG42534 | 3 | 3.25e5 | 3.52e5 | 7.78e5 | 6.19e5 | inactive |
| Oatp30B | 1 | 6.87e5 | 3.90e5 | 2.93e6 | 2.47e6 | active |
| Tps1 | 1 | 6.15e5 | 7.25e5 | 1.21e6 | 1.54e6 | inactive |
| Tps1 | 2 | 3.54e5 | 3.53e5 | 6.12e5 | 7.01e5 | inactive |
| CG12182 | 1 | 8.95e5 | 7.35e5 | 1.46e6 | 8.79e5 | inactive |
| CG14636 | 1 | 68752 | 72361 | 2.40e6 | 1.58e6 | inactive |
| CG14636 | 2 | 5.36e5 | 7.70e5 | 1.16e6 | 1.19e6 | inactive |
| CG8157 | 1 | 1.14e5 | 1.65e5 | 2.91e6 | 2.91e6 | inactive |
| CG8157 | 2 | 4.63e5 | 5.18e5 | 3.30e6 | 4.46e6 | inactive |
| CG8157 | 3 | 6.40e5 | 8.03e5 | 7.20e5 | 9.28e5 | inactive |
| cd | 1 | 1.97e5 | 1.70e5 | 3.28e6 | 2.18e6 | inactive |
| CG16903 | 1 | 2.45e5 | 2.36e5 | 3.35e6 | 2.74e6 | inactive |
| CG16903 | 2 | – | – | – | – | inactive |
| Pkn | 1 | 3.09e5 | 2.79e5 | 2.16e6 | 2.13e6 | inactive |
| Pkn | 2 | 4.58e5 | 4.87e5 | 9.10e5 | 9.52e5 | inactive |
| Pkn | 3 | – | – | – | – | inactive |

Records listed so far with an active call, once more:
| gene | reagent | firefly reporter light, replicate 1 | firefly reporter light, replicate 2 | Renilla control light, replicate 1 | Renilla control light, replicate 2 | outcome |
| --- | --- | --- | --- | --- | --- | --- |
| Oatp30B | 1 | 6.87e5 | 3.90e5 | 2.93e6 | 2.47e6 | active |
